Experimental data: PubChem BioAssay AID1224830 (NIAID, 2016)

- Test: 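Host factors that control LPS-induced TNF expression in human macrophages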 (primary screen)
- System: human THP-1 monocytic leukaemia cells, TNF dual-luciferase reporter clone, PMA-differentiated to macrophage-like cells
- Reagent: siRNA pool against human genes, 50 nM
- Timing: LPS for 4 h, given about 3 days after siRNA transfection
- Conditions: bacterial LPS (TLR4 ligand), 10 ng/ml
- Measured: 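TNF firefly reporter luminescence divided by renilla, normalised to the plate median, then turned into a robust z-score for each replicate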
- Direction: TNF reporter robust z-score: higher = stronger TNF reporter response to LPS
- Hit rule: 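a well is active when its z-score exceeds 2.8 or falls below -1.5; control wells carry no call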
Shown is an unselected part of about 18,000 deposited reagents. About 2,900 of all reagents (16%) count as active. 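Calls are made per well; low scores hint the gene aids the LPS response, high scores that it dampens it.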 Repeated entries: four replicate wells of each siRNA pool. Reagent sequences are not shown.

gene symbol | TNF reporter robust z-score | Call
COMMD6 | -0.53 | inactive
COMMD6 | 0.35 | inactive
COMMD6 | -0.12 | inactive
COMMD6 | 0.1 | inactive
SETX | 0.36 | inactive
SETX | 0.64 | inactive
SETX | 1.35 | inactive
SETX | 1.89 | inactive
PTPRK | 2.44 | inactive
PTPRK | 1.93 | inactive
PTPRK | 0.85 | inactive
PTPRK | 0.48 | inactive
IGFBP6 | 0.47 | inactive
IGFBP6 | 1.69 | inactive
IGFBP6 | 0.43 | inactive
IGFBP6 | 0.73 | inactive
ZFP91 | 0.09 | inactive
ZFP91 | 0.78 | inactive
ZFP91 | 0.32 | inactive
ZFP91 | 2.09 | inactive
TCF12 | -1.43 | inactive
TCF12 | -1.36 | inactive
TCF12 | -1.01 | inactive
TCF12 | -1.08 | inactive
DOK2 | 0.55 | inactive
DOK2 | 0.62 | inactive
DOK2 | 0.43 | inactive
DOK2 | 0.72 | inactive
CAMKK1 | -0.92 | inactive
CAMKK1 | -1.04 | inactive
CAMKK1 | -0.82 | inactive
CAMKK1 | -0.69 | inactive
NCOR2 | -1.1 | inactive
NCOR2 | -0.49 | inactive
NCOR2 | -0.45 | inactive
NCOR2 | 0.32 | inactive
TXNDC2 | -1.33 | inactive
TXNDC2 | -1.16 | inactive
TXNDC2 | -1.63 | active
TXNDC2 | -1.12 | inactive
NUP50 | -0.12 | inactive
NUP50 | -0.46 | inactive
NUP50 | -0.55 | inactive
NUP50 | -0.45 | inactive
CCDC78 | -1.75 | active
CCDC78 | -1.96 | active
CCDC78 | -1.94 | active
CCDC78 | -1.54 | active
ROBO1 | 1.02 | inactive
ROBO1 | 0.37 | inactive
ROBO1 | 1.3 | inactive
ROBO1 | 2.89 | active
IPO5 | -1.48 | inactive
IPO5 | -1.46 | inactive
IPO5 | -1.3 | inactive
IPO5 | -0.93 | inactive
SHC3 | -1.34 | inactive
SHC3 | -0.55 | inactive
SHC3 | -0.63 | inactive
SHC3 | -0.48 | inactive
ANKRD50 | 0.52 | inactive
ANKRD50 | -0.65 | inactive
ANKRD50 | 0.4 | inactive
ANKRD50 | 0.77 | inactive
SPRR2A | -0.53 | inactive
SPRR2A | 1.54 | inactive
SPRR2A | -0.06 | inactive
SPRR2A | 0.05 | inactive
ZNF649 | 0.14 | inactive
ZNF649 | 1.68 | inactive
ZNF649 | 0.68 | inactive
ZNF649 | 2.28 | inactive
FTH1 | 0.48 | inactive
FTH1 | 0.4 | inactive
FTH1 | 0 | inactive
FTH1 | 0.9 | inactive

Copied from above for reference:
gene symbol | TNF reporter robust z-score | Call
SETX | 0.64 | inactive
SETX | 1.35 | inactive
SETX | 1.89 | inactive
PTPRK | 2.44 | inactive
